Out of some 52,000 sequences screened, about 210 (0.4%) were called active.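 The calls were made as follows: active = gene whose silencing raises cell survival under the drug, median off-target-corrected z-score across its silencing RNAs 2 or more; inactive = the rest.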 The list shows a part of the results.

The assay is described as follows: Resistance to Poly (ADP-Ribose) Polymerase inhibitor: Gene Identification via Genome-wide siRNA Screen. The note with it: mouse BRCA2 R2336H ES cells, olaparib, CellTiter-Glo viability; stronger effect = higher value. An outline of the steps:
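Mouse BRCA2 R2336H ES cells were reverse-transfected with siRNA (20 nM final), treated at 48 h with 500 nM olaparib, and read by CellTiter-Glo after 72 h. Scores: MAD-based z per siRNA, median per gene, seed off-target correction.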
For CCUUUUUUGUCGUACGUUUTT against Prkx, the z-score is inactive: -0.22. Turning to GCUUUUUGAGUCUGAUUUATT against Dmgdh, the z-score was inactive: 1.06. Regarding GGGCAGUCCAGGAAGAUUGTT against Akap3, the z-score is inactive: 0.416. For GCAGUUCUACGGACAUUUCTT against Pcdhb1 the value was inactive: 0.267.

As for GGUGUGGUCCUUGCAUCUUTT against LOC223706, the z-score is inactive: -1.7. As to GGAGACCUUCUGAAACUAATT against Zfp198, the z-score was inactive: -0.875.

CCUGUUUAGCAUCUGGGAGTT against Gpr1: the z-score is inactive: 0.774.

Take GGAAAAUGCCUCAAGACUUTT against Wdr5b: the z-score was inactive: -1.4. Consider GGUUCAAUUCAAGUCUUUATT against Olfr195, for which the z-score is inactive: -0.164. For the sequence GGGAGGAUGCUGUUUCCAATT against Ssr3, the z-score is inactive: -0.528.

GCCUUCAUUCUGGUAGCUATT against Olfr207: the z-score was inactive: -0.297. On to “GCCUGAGUGAUAGUGAUUUTT against 4632404H22Rik”, for which the z-score was inactive: -0.442. For GGAAUGAGAUUUCUUCAUGTT against Itih2 the value was inactive: -0.232. With CCGAUAGAUCUUAUUCUCATT against V1ri5, the z-score was inactive: 0.0142.

Take GGUUACUAUGGAGACCUGGTT against Mia: the z-score is inactive: 0.107.

For GGCUGAAGUUACUUUGGAUTT against Nup98, the z-score was inactive: -2.16. On to GGUACCUGACAAUGAUGAGTT against Etv1, for which the z-score is inactive: -1.7. As for CGUUAAGAGUCCAAGUGAATT against Pvrl4, the z-score is inactive: -0.186. On to GGUUAUUCAUGAUGUUUGCTT against Fbn1, for which the z-score was inactive: 1.42. GGAUUCAUGAAAUAAGUCATT against Zfp426: the z-score is inactive: 0.187. For GGUUAUUAAGGAUAAACUGTT against Cops5 the value was inactive: -2.48. The figure for GGCACUGAAACUGCUCCUGTT against Taar5 is inactive: -1.14; for GGUUCCUCACAAGCAUUCUTT against Olfr818 it is inactive: 0.39.

On to “GGAAGAUGUUGAUAAUAGATT against E130119P06Rik”, for which the z-score was inactive: 0.301. Turning to “GGCCAACAAGCAGGUUUUUTT against 3110002H16Rik”, the z-score was inactive: 0.444.

Regarding GGUGCUAUCUGAGAGGUACTT against Triobp, the z-score is inactive: -0.776.

As to GGGUAUAUCAGGGCCAAGUTT against Col4a5, the z-score was inactive: -0.0254. Turning to GCCAACGAACUUUUUCGUATT against Zfp36l2, the z-score was inactive: 0.373.

“GGCAAGGUUCUUGUUUUUATT against 1700020B09Rik”: the z-score is inactive: 0.103. In the case of “CCCAGUUAGUGAGACUUACTT against B230362M20Rik”, the z-score is inactive: 0.21. With GGAAAGAAACAGAAGCACATT against Il21, the z-score is inactive: -0.344. For GGAUUUGAUGCUAAAUGAATT against Pcdhb13 the value was inactive: 0.238; for GCGGUUGAUGCAUAUAAUUTT against Dyx1c1, inactive: -0.214. With CGAUGUGGAAAGUCGGUAUTT against Csrp3, the z-score was inactive: -1.7. For CCCUGGUUCUAUGACUUAATT against Lass2 the value was inactive: -1.66; for GCAAGUGAAGAAACAGCACTT against Stx1b2, inactive: 0.519; for CCUUUGGACGCAACCAGUUTT against Ugt1a9, inactive: -1.52. For GAGUGAUGCGCAUUUCGAGTT against Sf3b5 the value was inactive: -0.551; for “GCCAAGCUUACUCAGAUUUTT against 4732467B22”, inactive: 0.837.

Regarding GGACUAGACUGUGAAAUGATT against Satb2, the z-score was inactive: -1.45. For the sequence “GCUUGAGAUACCAGAACCATT against 9530049C15Rik”, the z-score is inactive: -0.472. Turning to GGAUUAUGCCCUUCAUUGGTT against Rbbp7, the z-score is inactive: -0.812. In the case of “GGAGGAUCCUGAACGAAAATT against 2410018M14Rik”, the z-score was inactive: 1.07. Consider CCUGUCUGUUUGAGGACGUTT against Adora2a, for which the z-score is inactive: 0.42.

Regarding GGAUUCAAGAAGUAAAUCCTT against Uty, the z-score is inactive: 0.728. In the case of GUGCUCAGUUCCAAUUCCATT against Neurog3, the z-score was inactive: 0.132. For the sequence “GGUUUCACAUUCAUCAACUTT against G630039H03Rik”, the z-score was inactive: 2.55. Consider “GGCCUUGAAGGAGAUGCUATT against 4631403P03Rik”, for which the z-score was inactive: 0.21. For the sequence GCAUCCUUCACUCAAAUAUTT against Aspa, the z-score is inactive: -0.271. As to “GGCCUUGAAAUACUAUAAGTT against A430025D11Rik”, the z-score was inactive: -0.526. For GGCCUAUCUUCUUUACAUATT against Ctbs the value was inactive: 0.182.

GGAGAUGGCCACCUAUUUGTT against Csnk1g2: the z-score was inactive: 0.743. GCCACUCGUAUGAACAUCUTT against Gm237: the z-score was inactive: 1. Regarding “GGACCACACGUCAAAAUGATT against 2610022G08Rik”, the z-score is inactive: 0.959.

As for CCUGUUUGUACUACUCUUUTT against Krt2-16, the z-score is inactive: -0.309. In the case of GCAGCUGAUCACUGGAAAGTT against Tuba3, the z-score was inactive: -0.156. Regarding “GGCUGAGUCUACCAACAGUTT against 9930017A07Rik”, the z-score is inactive: 0.613. With GGAGUGGUUUGAGGACAGCTT against Ppfibp2, the z-score is inactive: -0.591. Turning to GGAAUUACUCACAUGCUAATT against Tlr7, the z-score is inactive: -0.968. Take “GCUUUAAUGCCUAUUGCAATT against 2210421G13Rik”: the z-score is inactive: -0.111. Regarding GCCCACCAAUAUUUUGCUUTT against Stk16, the z-score is inactive: 0.723. GGUAUUUGUCUGUAAUUUGTT against Ddx50: the z-score was inactive: -0.652. In the case of GGCUAGCAUUAGCCACAGATT against Enpp3, the z-score is inactive: 0.649. For GGGCAGCUUUGAGAAAGCCTT against Rrad the value was inactive: 0.0689. GGAGGACAAACAGCUUCAATT against Psmd2: the z-score was inactive: -2.7.

On to GCACUGCUAUUUACAAAAATT against Tex16, for which the z-score is inactive: 1.5. As for GGAAAAGUCCAAUGUGACCTT against Ppyr1, the z-score is inactive: -0.687.

Source of the values: PubChem BioAssay AID1347423 (Functional Genomics Laboratory (NCATS/FGL), 2020).
